Test results taken from publication PMC4338441, “Non-catalytic motor domains enable processive movement and functional diversification of the kinesin-14 Kar3” (eLife, 2015).

T1: Cik1–FLAG (native motor, affinity purification from yeast) (S. cerevisiae (S288C background)) (UniProt Q01649)
T1 sequence: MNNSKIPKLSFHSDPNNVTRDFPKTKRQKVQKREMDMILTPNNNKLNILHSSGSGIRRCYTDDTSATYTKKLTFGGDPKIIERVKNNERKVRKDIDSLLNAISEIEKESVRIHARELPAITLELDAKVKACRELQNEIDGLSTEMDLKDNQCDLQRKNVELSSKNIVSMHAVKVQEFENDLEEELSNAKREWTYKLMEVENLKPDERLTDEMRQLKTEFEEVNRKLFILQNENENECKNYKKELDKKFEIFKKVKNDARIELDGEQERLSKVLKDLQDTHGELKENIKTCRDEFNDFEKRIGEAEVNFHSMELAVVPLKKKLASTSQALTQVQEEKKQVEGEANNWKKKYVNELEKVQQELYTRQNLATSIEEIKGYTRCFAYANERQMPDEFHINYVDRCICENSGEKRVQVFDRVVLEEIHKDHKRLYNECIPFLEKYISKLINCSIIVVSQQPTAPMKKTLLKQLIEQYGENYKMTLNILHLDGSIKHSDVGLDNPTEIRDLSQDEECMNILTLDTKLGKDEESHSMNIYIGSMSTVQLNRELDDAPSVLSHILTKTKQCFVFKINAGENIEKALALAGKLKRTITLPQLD


Molecular target: T1, Cik1–FLAG (native motor, affinity purification from yeast) (S. cerevisiae (S288C background))
Test: affinity purification with mass spectrometry; Cik1–FLAG from yeast at different cell cycle stages; anti-FLAG M2 antibody on Dynabeads, buffer A with 150 mM KCl, 0.1% NP-40; on-bead LysC digest; three independent preparations

binding | Binder
binds | Bim1 (endogenous, co-purified with Cik1–FLAG) (protein, UniProt P40013 1-344) MSAGIGESRTELLTWLNGLLNLNYKKIEECGTGAAYCQIMDSIYGDLPMNRVKFNATAEYEFQTNYKILQSCFSRHGIEKTVYVDKLIRCKFQDNLEFLQWLKKHWIRHKDESVYDPDARRKYRPIITNNSATKPRTVSNPTTAKRSSSTGTGSAMSGGLATRHSSLGINGSRKTSVTQGQLVAIQAELTKSQETIGSLNEEIEQYKGTVSTLEIEREFYFNKLRDIEILVHTTQDLINEGVYKFNDETITGHGNGNGGALLRFVKKVESILYATAEGFEMNDGEDELNDKNLGEHGTVPNQGGYANSNGEVNGNEGSNHDVIMQNDEGEVGVSNNLIIDEETF
binds | Kar3 (endogenous, co-purified with Cik1–FLAG) (protein, UniProt P17119 1-729) MESLPRTPTKGRSTQHLSTPSPKNDILAMNGHKRRNTTTPPPKHTLLKPQRTDIHRHSLASQSRISMSPNRELLKNYKGTANLIYGNQKSNSGVTSFYKENVNELNRTQAILFEKKATLDLLKDELTETKEKINAVNLKFETLREEKIKIEQQLNLKNNELISIKEEFLSKKQFMNEGHEIHLKQLAASNKKELKQMENEYKTKIEKLKFMKIKQFENERASLLDKIEEVRNKITMNPSTLQEMLNDVEQKHMLEKEEWLTEYQSQWKKDIELNNKHMQEIESIKKEIENTLKPELAEKKKLLTEKRNAYEAIKVKVKEKEEETTRLRDEVALKQKTNLETLEKIKELEEYIKDTELGMKELNEILIKEETVRRTLHNELQELRGNIRVYCRIRPALKNLENSDTSLINVNEFDDNSGVQSMEVTKIQNTAQVHEFKFDKIFDQQDTNVDVFKEVGQLVQSSLDGYNVCIFAYGQTGSGKTFTMLNPGDGIIPSTISHIFNWINKLKTKGWDYKVNCEFIEIYNENIVDLLRSDNNNKEDTSIGLKHEIRHDQETKTTTITNVTSCKLESEEMVEIILKKANKLRSTASTASNEHSSRSHSIFIIHLSGSNAKTGAHSYGTLNLVDLAGSERINVSQVVGDRLRETQNINKSLSCLGDVIHALGQPDSTKRHIPFRNSKLTYLLQYSLTGDSKTLMFVNISPSSSHINETLNSLRFASKVNSTRLVSRK
binds | Bik1 (endogenous, co-purified with Cik1–FLAG) (protein, UniProt P11709 1-440) MDRYQRKIGCFIQIPNLGRGQLKYVGPVDTKAGMFAGVDLLANIGKNDGSFMGKKYFQTEYPQSGLFIQLQKVASLIEKASISQTSRRTTMEPLSIPKNRSIVRLTNQFSPMDDPKSPTPMRSFRITSRHSGNQQSMDQEASDHHQQQEFGYDNREDRMEVDSILSSDRKANHNTTSDWKPDNGHMNDLNSSEVTIELREAQLTIEKLQRKQLHYKRLLDDQRMVLEEVQPTFDRYEATIQEREKEIDHLKQQLELERRQQAKQKQFFDAENEQLLAVVSQLHEEIKENEERNLSHNQPTGANEDVELLKKQLEQLRNIEDQFELHKTKWAKEREQLKMHNDSLSKEYQNLSKELFLTKPQDSSSEEVASLTKKLEEANEKIKQLEQAQAQTAVESLPIFDPPAPVDTTAGRQQWCEHCDTMGHNTAECPHHNPDNQQFF

Results are given in words; binding and its absence hold for the method and conditions named. In cells and extracts the contact can be indirect. These calls come from enrichment with a bait or labelling near it, and not all partners need be listed. Where a sequence is shown, tags or fusion partners need not be part of it.
